The chains behind the UniProt entries cited, without tags or fusion partners.
UniProt P20815, whole entry: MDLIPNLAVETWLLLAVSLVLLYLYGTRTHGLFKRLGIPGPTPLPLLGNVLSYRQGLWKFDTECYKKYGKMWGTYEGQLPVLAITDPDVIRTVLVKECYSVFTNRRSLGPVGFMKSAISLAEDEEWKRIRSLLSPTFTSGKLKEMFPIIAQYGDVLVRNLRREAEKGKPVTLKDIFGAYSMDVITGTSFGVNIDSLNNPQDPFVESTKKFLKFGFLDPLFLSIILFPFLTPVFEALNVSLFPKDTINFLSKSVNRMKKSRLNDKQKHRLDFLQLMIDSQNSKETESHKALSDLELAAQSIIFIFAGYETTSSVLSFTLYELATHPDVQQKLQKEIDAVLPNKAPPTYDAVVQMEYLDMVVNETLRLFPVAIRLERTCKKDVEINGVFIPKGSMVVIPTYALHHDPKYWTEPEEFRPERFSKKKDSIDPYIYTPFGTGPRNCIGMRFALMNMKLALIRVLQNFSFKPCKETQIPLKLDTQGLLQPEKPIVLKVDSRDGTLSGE

According to article PMC8260145 (Archives of biochemistry and biophysics, 2021):

Assays:
[1] = test system: cytochromes P450 of HLM that metabolise C152; assay: Inhibition of C152 metabolism in human liver microsomes; type: biochemical; conditions: human, IC50 (Clotrimazole), 30 μM C152
[2] = test system: human liver microsomes; assay: as above; type: biochemical; conditions: 30 μM C152
[3] = molecular target: recombinant human CYP3A5 (Homo sapiens, UniProt P20815); assay: Inhibition of C152 metabolism in SS; conditions: SS(3A5); 30 μM C152

## Clc1ccccc1C(c1ccccc1)(c1ccccc1)n1ccnc1 [Clotrimazole]
[1]; human liver microsomes HLM(FVT), probe C152 (30 μM), HLM(FVT)
  IC50: 49 ± 40 nM
[1]; human liver microsomes HLM(IHG), probe C152 (30 μM), HLM(IHG)
  IC50: 47 ± 6 nM
[1]; human liver microsomes HLM(LBA) enriched with CYP2E1, probe C152 (30 μM), HLM(LBA)+CYP2E1
  IC50: 79 ± 16 nM
[1]; human liver microsomes HLM(LBA), probe C152 (30 μM), HLM(LBA)
  IC50: 239 ± 52 nM
[1]; human liver microsomes HLM(LFJ) enriched with CYP2E1, probe C152 (30 μM), HLM(LFJ)+CYP2E1
  IC50: 55 ± 17 nM
[1]; human liver microsomes HLM(LFJ), probe C152 (30 μM), HLM(LFJ)
  IC50: 286 ± 89 nM
[1]; human liver microsomes HLM(NQO), probe C152 (30 μM), HLM(NQO)
  IC50: 397 ± 76 nM
[1]; human liver microsomes HLM(ODN), probe C152 (30 μM), HLM(ODN)
  IC50: 72 ± 11 nM
[2]; HLM(FVT)
  Maximal inhibition (Clotrimazole): 70 ± 24%
[2]; HLM(IHG)
  Maximal inhibition (Clotrimazole): 80 ± 19%
[2]; HLM(LBA)+CYP2E1
  Maximal inhibition (Clotrimazole): 85 ± 17%
[2]; HLM(LBA)
  Maximal inhibition (Clotrimazole): 71 ± 2%
[2]; HLM(LFJ)+CYP2E1
  Maximal inhibition (Clotrimazole): 96 ± 9%
[2]; HLM(LFJ)
  Maximal inhibition (Clotrimazole): 94 ± 6%
[2]; HLM(NQO)
  Maximal inhibition (Clotrimazole): 94 ± 13%
[2]; HLM(ODN)
  Maximal inhibition (Clotrimazole): 79 ± 25%
[3]
  Maximal inhibition (Clotrimazole): 96 ± 4%
